No constants are given. Whether binding was seen depends on the method and setting. In cells and extracts the contact can be indirect. Some results given as binding are weak or reduced against the parent protein; the word gives no strength. Sequences can lack the tags named with a protein.
Key:
[1] = biological target: T1, SPINDLY (SPY), full-length, 3xHA-tagged (35S::SPY-3xHA) (Arabidopsis thaliana) (UniProt Q96301); assay: co-IP
T1 sequence: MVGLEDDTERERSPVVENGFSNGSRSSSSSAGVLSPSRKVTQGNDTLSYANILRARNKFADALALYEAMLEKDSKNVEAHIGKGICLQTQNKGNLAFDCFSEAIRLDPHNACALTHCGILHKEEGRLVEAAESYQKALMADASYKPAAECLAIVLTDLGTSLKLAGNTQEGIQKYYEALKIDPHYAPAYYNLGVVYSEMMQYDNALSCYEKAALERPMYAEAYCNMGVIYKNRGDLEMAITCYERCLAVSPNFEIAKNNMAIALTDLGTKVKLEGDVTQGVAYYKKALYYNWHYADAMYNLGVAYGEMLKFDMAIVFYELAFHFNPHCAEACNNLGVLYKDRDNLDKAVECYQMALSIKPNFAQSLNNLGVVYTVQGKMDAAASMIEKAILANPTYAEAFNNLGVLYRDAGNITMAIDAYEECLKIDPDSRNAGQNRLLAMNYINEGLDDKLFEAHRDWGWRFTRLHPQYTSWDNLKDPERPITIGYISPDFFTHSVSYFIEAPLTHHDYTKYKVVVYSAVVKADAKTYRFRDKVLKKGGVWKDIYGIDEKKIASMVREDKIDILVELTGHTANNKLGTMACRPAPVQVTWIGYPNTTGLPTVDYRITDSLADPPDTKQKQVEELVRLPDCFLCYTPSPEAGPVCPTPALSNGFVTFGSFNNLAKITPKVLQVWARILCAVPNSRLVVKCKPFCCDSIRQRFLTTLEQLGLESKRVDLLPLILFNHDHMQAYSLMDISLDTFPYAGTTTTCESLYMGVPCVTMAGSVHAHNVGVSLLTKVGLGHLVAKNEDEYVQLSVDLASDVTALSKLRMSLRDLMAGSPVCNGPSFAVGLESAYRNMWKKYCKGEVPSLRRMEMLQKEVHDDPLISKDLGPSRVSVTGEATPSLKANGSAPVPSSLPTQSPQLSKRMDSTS

[2] = biological target: T2, SECRET AGENT (SEC), full-length, 3xHA-tagged (35S::SEC-3xHA) (Arabidopsis thaliana) (UniProt Q9M8Y0); assay: co-IP
T2 sequence: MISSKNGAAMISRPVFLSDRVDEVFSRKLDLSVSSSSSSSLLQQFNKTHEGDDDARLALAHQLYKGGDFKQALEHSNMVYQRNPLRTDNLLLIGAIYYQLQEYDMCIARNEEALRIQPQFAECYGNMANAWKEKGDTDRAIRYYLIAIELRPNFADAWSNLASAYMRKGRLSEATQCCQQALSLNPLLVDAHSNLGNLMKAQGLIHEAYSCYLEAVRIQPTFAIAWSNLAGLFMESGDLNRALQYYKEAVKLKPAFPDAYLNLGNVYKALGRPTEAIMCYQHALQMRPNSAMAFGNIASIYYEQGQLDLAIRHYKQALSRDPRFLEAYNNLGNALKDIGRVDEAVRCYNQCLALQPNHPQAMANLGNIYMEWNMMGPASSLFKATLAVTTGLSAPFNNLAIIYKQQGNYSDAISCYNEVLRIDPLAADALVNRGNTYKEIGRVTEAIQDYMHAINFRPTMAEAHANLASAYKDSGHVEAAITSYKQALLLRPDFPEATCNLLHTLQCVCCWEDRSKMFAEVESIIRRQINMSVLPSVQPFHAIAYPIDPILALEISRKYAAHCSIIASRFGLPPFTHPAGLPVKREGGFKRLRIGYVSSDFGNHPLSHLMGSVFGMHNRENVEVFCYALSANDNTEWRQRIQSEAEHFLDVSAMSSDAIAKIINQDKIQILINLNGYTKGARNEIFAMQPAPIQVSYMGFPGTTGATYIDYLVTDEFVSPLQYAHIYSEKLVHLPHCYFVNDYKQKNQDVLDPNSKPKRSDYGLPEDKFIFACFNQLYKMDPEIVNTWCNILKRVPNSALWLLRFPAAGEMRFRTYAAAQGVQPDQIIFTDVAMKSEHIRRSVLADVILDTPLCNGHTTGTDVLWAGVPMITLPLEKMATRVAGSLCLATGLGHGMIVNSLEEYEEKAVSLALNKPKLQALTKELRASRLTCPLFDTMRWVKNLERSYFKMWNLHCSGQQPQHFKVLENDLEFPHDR

binding [1]: binds | binding [2]: binds
B1: SPATULA (SPT), full-length, 3xFLAG-tagged (35S::SPT-3xFLAG) (protein, UniProt Q9FUA4 1-373)
chain: MISQREEREEKKQRVMGDKKLISSSSSSSVYDTRINHHLHHPPSSSDEISQFLRHIFDRSSPLPSYYSPATTTTTASLIGVHGSGDPHADNSRSLVSHHPPSDSVLMSKRVGDFSEVLIGGGSGSAAACFGFSGGGNNNNVQGNSSGTRVSSSSVGASGNETDEYDCESEEGGEAVVDEAPSSKSGPSSRSSSKRCRAAEVHNLSEKRRRSRINEKMKALQSLIPNSNKTDKASMLDEAIEYLKQLQLQVQMLTMRNGINLHPLCLPGTTLHPLQLSQIRPPEATNDPLLNHTNQFASTSNAPEMINTVASSYALEPSIRSHFGPFPLLTSPVEMSREGGLTHPRLNIGHSNANITGEQALFDGQPDLKDRIT

From paper doi:10.1101/2023.04.28.538690
